11 substances from paper PMC3922604 can be followed below.

Amino acid sequences for entries named in this document (tags omitted). A change or cut given only in a name is not applied to a line headed by its entry. Residues count along the entry.
UniProt P02787, residues 20-698: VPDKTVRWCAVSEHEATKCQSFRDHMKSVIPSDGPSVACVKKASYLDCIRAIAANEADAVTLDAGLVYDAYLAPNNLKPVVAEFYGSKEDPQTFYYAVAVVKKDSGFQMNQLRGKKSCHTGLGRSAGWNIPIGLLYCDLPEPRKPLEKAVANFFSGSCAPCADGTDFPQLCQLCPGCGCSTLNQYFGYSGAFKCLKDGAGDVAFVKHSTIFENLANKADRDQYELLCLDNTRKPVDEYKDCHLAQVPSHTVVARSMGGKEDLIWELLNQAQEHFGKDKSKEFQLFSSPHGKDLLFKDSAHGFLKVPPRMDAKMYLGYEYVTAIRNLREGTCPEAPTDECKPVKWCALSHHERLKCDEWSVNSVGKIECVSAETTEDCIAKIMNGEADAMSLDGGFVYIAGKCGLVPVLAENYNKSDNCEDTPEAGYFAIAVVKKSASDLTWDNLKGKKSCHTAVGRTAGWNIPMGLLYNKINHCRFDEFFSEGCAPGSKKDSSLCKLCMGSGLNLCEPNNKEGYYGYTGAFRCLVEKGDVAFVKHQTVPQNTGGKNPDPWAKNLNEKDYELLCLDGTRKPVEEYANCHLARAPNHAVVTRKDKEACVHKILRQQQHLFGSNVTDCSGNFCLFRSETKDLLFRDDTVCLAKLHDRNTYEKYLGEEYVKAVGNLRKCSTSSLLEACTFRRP
UniProt Q01469: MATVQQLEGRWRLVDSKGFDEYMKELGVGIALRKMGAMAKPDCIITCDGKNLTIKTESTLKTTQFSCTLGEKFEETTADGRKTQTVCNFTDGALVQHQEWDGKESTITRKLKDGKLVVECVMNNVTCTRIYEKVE
UniProt P15924: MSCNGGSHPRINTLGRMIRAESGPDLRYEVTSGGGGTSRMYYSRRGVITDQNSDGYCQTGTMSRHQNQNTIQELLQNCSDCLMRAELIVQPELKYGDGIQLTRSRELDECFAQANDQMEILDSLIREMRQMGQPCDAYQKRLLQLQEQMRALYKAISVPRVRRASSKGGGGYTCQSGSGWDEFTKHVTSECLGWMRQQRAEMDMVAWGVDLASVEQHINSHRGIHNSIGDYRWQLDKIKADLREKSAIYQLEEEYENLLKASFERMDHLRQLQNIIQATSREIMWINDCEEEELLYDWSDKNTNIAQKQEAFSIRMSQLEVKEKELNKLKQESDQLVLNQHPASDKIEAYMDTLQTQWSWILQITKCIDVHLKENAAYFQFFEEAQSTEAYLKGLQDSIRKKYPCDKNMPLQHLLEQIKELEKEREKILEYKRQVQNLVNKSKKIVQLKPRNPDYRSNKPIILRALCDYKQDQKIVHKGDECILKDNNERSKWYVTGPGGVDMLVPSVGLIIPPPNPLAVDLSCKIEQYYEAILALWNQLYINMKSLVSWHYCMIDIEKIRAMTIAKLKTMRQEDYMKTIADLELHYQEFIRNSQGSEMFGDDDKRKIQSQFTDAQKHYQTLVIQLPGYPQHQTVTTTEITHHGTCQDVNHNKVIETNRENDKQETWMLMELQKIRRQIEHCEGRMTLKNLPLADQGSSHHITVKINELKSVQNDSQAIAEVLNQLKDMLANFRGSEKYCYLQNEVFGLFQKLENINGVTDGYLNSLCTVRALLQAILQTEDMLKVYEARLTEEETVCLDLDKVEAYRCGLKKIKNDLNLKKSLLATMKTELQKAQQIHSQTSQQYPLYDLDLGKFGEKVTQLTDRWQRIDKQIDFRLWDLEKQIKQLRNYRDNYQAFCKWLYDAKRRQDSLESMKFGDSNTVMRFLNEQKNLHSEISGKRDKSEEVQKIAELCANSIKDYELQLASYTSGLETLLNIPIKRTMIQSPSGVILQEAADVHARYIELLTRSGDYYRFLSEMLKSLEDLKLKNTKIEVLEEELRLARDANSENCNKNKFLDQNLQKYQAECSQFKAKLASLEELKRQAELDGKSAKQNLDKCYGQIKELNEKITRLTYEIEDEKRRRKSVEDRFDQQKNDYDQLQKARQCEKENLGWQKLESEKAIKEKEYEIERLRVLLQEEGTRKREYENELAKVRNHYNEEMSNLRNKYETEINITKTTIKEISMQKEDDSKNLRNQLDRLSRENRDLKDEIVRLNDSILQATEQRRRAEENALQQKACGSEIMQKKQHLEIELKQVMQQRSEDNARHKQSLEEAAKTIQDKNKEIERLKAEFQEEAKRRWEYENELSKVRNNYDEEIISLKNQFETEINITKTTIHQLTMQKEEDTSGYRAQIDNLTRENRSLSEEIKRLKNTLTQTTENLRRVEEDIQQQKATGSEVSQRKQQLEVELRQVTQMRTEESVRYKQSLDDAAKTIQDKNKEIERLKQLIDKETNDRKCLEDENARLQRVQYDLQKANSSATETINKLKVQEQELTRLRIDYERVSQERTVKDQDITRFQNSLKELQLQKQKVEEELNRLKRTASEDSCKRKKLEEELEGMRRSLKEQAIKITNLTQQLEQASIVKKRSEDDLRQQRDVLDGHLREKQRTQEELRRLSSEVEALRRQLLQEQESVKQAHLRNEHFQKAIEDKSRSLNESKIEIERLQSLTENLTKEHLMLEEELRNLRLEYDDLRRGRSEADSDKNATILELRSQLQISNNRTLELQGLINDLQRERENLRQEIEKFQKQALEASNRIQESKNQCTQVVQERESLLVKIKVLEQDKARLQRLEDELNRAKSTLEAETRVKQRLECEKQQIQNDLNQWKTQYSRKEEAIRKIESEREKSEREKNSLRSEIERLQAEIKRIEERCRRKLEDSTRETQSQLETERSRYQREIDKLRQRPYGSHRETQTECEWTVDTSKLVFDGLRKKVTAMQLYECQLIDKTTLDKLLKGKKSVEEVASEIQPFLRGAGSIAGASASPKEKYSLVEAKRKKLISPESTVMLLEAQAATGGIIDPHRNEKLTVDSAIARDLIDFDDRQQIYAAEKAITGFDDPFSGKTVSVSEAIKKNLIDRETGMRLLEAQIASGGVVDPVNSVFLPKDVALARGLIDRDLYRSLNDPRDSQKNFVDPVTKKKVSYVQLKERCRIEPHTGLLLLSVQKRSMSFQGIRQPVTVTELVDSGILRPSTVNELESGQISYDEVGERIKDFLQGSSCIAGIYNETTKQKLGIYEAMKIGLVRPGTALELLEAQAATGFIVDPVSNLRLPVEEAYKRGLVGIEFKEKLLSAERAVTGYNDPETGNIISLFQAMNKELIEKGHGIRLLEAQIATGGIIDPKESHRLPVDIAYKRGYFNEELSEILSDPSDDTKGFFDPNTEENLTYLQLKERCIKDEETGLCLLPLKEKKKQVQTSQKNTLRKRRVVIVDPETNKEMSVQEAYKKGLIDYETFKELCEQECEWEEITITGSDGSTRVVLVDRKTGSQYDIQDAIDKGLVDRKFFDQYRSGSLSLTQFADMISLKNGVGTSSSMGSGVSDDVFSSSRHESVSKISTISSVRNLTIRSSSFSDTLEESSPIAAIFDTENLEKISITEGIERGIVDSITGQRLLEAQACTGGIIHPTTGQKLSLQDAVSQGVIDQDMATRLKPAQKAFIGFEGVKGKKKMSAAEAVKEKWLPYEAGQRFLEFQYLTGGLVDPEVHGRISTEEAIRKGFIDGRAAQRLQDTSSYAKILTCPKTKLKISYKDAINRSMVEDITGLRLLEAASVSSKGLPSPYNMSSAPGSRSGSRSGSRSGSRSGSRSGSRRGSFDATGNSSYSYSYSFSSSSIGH
UniProt P25311, residues 21-298: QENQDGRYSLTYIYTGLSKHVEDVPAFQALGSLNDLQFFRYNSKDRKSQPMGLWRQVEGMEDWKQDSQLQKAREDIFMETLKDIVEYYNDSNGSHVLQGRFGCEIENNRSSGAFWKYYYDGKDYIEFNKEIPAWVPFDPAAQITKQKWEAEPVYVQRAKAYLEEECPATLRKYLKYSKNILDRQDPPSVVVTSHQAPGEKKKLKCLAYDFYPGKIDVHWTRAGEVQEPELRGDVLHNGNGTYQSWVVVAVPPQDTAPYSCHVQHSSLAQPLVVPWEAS
UniProt P01024, residues 23-1663: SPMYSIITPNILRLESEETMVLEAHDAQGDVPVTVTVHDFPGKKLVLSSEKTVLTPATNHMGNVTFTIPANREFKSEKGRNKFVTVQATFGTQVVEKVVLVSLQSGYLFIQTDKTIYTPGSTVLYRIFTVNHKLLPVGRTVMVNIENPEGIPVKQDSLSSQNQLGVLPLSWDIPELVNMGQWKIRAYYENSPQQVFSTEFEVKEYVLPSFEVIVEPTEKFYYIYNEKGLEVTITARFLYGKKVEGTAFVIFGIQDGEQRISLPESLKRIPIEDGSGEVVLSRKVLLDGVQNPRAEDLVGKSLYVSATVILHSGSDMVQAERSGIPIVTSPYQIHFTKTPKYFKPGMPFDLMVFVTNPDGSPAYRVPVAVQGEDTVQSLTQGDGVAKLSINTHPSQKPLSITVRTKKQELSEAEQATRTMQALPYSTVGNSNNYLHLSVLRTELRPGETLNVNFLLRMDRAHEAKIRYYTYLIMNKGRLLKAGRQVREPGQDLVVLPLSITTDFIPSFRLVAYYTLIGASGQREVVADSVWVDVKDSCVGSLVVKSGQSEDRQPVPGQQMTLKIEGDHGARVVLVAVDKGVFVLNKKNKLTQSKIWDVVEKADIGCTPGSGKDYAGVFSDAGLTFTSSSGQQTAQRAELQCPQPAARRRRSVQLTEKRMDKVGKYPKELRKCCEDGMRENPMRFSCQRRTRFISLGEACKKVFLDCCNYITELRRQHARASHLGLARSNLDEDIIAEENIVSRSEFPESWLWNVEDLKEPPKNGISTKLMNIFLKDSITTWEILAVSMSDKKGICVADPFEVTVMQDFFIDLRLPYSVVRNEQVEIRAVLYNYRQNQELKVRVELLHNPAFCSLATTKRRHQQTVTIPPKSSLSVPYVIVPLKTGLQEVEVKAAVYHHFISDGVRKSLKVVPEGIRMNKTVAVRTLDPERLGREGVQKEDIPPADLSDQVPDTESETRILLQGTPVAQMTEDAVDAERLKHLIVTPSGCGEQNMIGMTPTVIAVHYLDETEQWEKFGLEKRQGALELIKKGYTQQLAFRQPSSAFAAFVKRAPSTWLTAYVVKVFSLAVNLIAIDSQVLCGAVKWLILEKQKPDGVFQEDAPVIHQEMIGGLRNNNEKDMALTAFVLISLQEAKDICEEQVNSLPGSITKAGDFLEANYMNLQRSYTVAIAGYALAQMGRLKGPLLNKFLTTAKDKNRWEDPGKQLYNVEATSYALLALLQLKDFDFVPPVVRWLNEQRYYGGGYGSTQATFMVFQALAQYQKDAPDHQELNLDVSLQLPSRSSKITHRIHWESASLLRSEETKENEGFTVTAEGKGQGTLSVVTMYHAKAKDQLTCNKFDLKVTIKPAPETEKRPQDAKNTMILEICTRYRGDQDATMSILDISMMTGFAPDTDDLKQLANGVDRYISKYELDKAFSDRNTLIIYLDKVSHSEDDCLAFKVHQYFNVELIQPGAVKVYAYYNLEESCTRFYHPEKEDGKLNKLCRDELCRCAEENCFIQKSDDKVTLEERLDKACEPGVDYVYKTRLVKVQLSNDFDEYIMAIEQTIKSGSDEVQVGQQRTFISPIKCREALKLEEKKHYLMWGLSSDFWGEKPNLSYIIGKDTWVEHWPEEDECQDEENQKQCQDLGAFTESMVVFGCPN
UniProt P02679, residues 27-453: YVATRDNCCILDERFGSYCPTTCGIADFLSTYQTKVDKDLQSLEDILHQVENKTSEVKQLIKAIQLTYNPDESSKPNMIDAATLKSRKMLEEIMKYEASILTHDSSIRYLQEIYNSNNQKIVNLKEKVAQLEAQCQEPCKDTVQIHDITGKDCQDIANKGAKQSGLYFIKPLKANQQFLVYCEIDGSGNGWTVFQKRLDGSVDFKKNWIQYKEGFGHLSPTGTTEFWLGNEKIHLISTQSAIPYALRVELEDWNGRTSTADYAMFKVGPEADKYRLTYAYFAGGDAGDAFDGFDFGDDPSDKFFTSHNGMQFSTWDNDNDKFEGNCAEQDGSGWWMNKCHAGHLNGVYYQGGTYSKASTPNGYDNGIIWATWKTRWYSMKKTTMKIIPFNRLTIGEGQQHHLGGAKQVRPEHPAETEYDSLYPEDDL
UniProt P02760: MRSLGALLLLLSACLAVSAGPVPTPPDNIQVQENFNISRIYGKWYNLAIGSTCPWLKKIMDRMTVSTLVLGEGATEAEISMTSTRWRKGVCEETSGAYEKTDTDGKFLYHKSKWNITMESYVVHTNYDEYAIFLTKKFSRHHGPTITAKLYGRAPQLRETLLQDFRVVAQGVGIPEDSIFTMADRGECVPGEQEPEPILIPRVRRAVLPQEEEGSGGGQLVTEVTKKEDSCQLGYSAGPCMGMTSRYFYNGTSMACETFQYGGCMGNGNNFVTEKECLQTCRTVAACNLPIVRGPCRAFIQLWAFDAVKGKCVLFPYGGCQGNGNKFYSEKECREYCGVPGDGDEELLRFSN
UniProt P05090, residues 21-189: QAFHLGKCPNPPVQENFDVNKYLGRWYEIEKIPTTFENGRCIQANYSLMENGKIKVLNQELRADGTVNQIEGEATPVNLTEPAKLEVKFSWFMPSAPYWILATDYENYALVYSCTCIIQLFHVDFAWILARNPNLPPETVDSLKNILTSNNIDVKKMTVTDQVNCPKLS

In this test the target is albumin (human (endogenous in blood)) (UniProt P02768). In words: cross-linking + affinity purification with mass spectrometry; fresh human blood cross-linked 5 s in 10% formaldehyde, quenched with 4 M Tris; immunoprecipitation with anti-human serum albumin antibody and Protein A + G agarose, washed with PBS; 4-12% SDS-PAGE, six unstained slices above 70 kDa, LC-MS/MS; control: cross-linked sample without antibody.

These are yes or no findings as the source states them, for the method shown. Binding seen in cells or lysates may run through a third protein. Here binding means that the protein was enriched with, or labelled near, the bait; the list need not be complete. A no says only that the protein was not detected with the bait.

For “transferrin (from UniProt P02787 20-698)”, the binding result is reported as “no binding”.

For the substance LEG7_HUMAN (from UniProt P47929 1-136), the binding result is given as “binds”.

Take FABP5_HUMAN (from UniProt Q01469 1-135): the binding result is on record as “binds”.

DESP_HUMAN (from UniProt P15924 1-2871): the binding result is reported as “binds”. Next, ZA2G_HUMAN (from UniProt P25311 21-298): “binds”. In the case of “complement C3 (from UniProt P01024 23-1663)” it was “binds”; in that of FIBG_HUMAN (from UniProt P02679 27-453), “binds”.

“AMBP, alpha-1-microglobulin/bikunin precursor (from UniProt P02760)”: the binding result is given as “binds”. Next, B3AT_HUMAN (from UniProt P02730 1-911): “binds”. In the case of APOD_HUMAN (from UniProt P05090 21-189) it was “binds”. In the case of “IGLL5_HUMAN (from UniProt B9A064 36-214)”, the binding result is “binds”.
